According to patent US20250145665A1, “MACROCYCLIC PEPTIDES USEFUL AS MODULATORS OF TNF ALPHA” (Bristol-Myers Squibb Company, priority 2023, published 2025):
Some entries share one result that the patent states for a list of compounds. Starred links: 1 amine or outer side, 2 acyl side, 3 side chain; linkers in the order of their positions; H or OH if unused. Positions of bridges follow the written chain, without caps; N, C: chain ends. Non-standard residues stand in square brackets, D forms with d. Residues, ends and D or L forms follow the SMILES beside them. *: point of attachment. Bip(4'-NHCO-C6H4-3-CH2COOH) = N[C@@H](Cc1ccc(-c2ccc(NC(=O)c3cccc(CC(=O)O)c3)cc2)cc1)C(=O)O; Bip(4'-NHCO-C6H4-4-CH2COOH) = N[C@@H](Cc1ccc(-c2ccc(NC(=O)c3ccc(CC(=O)O)cc3)cc2)cc1)C(=O)O; dArg(Nω-CH2C6H4-3-CH2Gua) = N=C(N)NCc1cccc(CNC(=N)NCCC[C@@H](N)C(=O)O)c1; Bip(4'-NH) = O=C([C@H](Cc1ccc(-c2ccc(N[*:3])cc2)cc1)N[*:1])[*:2]; dArg(ω-(3-HO-benzyl)) = N=C(NCCC[C@@H](N)C(=O)O)NCc1cccc(O)c1; Bip(4'-COOH) = N[C@@H](Cc1ccc(-c2ccc(C(=O)O)cc2)cc1)C(=O)O; Ala(imidazol-2-yl) = N[C@@H](Cc1ncc[nH]1)C(=O)O; Ala(morpholin-4-yl) = N[C@@H](CN1CCOCC1)C(=O)O; Benzoyl(3-OCH2COOH) = O=C(O)COc1cccc(C(=O)*)c1; Bip = N[C@@H](Cc1ccc(-c2ccccc2)cc1)C(=O)O; 2Pal = N[C@@H](Cc1ccccn1)C(=O)O; Tic = O=C(O)[C@@H]1Cc2ccccc2CN1; Cha = N[C@@H](CC1CCCCC1)C(=O)O; Tle = CC(C)(C)[C@H](N)C(=O)O; Sar = CNCC(=O)O

The chains behind the UniProt entries cited, without tags or fusion partners. Residues count along the entry.
UniProt P01375, 77-233 limits assumed: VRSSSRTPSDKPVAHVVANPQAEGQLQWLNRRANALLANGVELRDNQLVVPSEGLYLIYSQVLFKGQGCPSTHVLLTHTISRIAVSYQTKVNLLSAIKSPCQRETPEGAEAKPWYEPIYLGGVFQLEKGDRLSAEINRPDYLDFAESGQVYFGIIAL

The molecules below were run against TNFα (Homo sapiens, UniProt P01375) (assay: TNF-Induced HEK-Blue Assay). Settings: summary statement for all examples; read-out: IC50 values measured in the TNF induced HEK-Blue assay.
Format: cell-based

IC50, ≤ 25 µM:
CC(C)C[C@@H]1NC(=O)[C@H](Cc2ncc[nH]2)NC(=O)[C@H](C(C)C)NC(=O)[C@@H]2CCCN2C(=O)[C@H](C(C)C)NC(=O)[C@@H](CCCNC(=N)NCc2cccc(CNC(=N)N)c2)NC(=O)[C@H](CC(=O)O)NC(=O)[C@H](Cc2ccccn2)NC(=O)CN(C)C(=O)[C@H](Cc2ccc(-c3ccc(NC(=O)c4ccc(CC(=O)O)cc4)cc3)cc2)NC(=O)[C@H](Cc2ccc(-c3ccc(C(=O)O)cc3)cc2)NC(=O)[C@H](CC2CCCCC2)NC(=O)CSC[C@@H](C(=O)NCC(N)=O)NC1=O [Example 559] ({CH2CO}-[Cha][Bip(4'-COOH)][Bip(4'-NHCO-C6H4-4-CH2COOH)][Sar][2Pal]D[dArg(Nω-CH2C6H4-3-CH2Gua)]VPV[Ala(imidazol-2-yl)]LCG-NH2; thioether N-13), CC(C)C[C@@H]1NC(=O)[C@H](Cc2ncc[nH]2)NC(=O)[C@H](C(C)C)NC(=O)[C@@H]2CCCN2C(=O)[C@H](C(C)C)NC(=O)[C@@H](CCCNC(=N)NCc2cccc(CNC(=N)N)c2)NC(=O)[C@H](CC(=O)O)NC(=O)[C@H](Cc2ccccn2)NC(=O)CN(C)C(=O)[C@H](Cc2ccc(-c3ccc(NC(=O)c4cccc(OCC(=O)O)c4)cc3)cc2)NC(=O)[C@H](Cc2ccc(-c3ccc(C(=O)O)cc3)cc2)NC(=O)[C@H](CC2CCCCC2)NC(=O)CSC[C@@H](C(=O)NCC(N)=O)NC1=O [Example 560] ({CH2CO}-[Cha][Bip(4'-COOH)][Bip(4'-NH)](Benzoyl(3-OCH2COOH))[Sar][2Pal]D[dArg(Nω-CH2C6H4-3-CH2Gua)]VPV[Ala(imidazol-2-yl)]LCG-NH2; thioether N-13), CC[C@H](C)[C@@H]1NC(=O)[C@@H](CCCNC(=N)NCc2cccc(O)c2)NC(=O)[C@H](CC(=O)O)NC(=O)[C@H](Cc2cnc[nH]2)NC(=O)CN(C)C(=O)[C@H](Cc2ccc(-c3ccc(NC(=O)c4cccc(CC(=O)O)c4)cc3)cc2)NC(=O)[C@H](Cc2ccc(-c3ccc(C(=O)O)cc3)cc2)NC(=O)[C@H](CC2CCCCC2)NC(=O)CSC[C@@H](C(=O)NCC(N)=O)NC(=O)[C@H](CC(C)C)NC(=O)[C@H](Cc2ncc[nH]2)NC(=O)[C@H](C(C)C)NC(=O)[C@@H]2Cc3ccccc3CN2C1=O [Example 562] ({CH2CO}-[Cha][Bip(4'-COOH)][Bip(4'-NHCO-C6H4-3-CH2COOH)][Sar]HD[dArg(ω-(3-HO-benzyl))]I[Tic]V[Ala(imidazol-2-yl)]LCG-NH2; thioether N-13), CC[C@H](C)[C@@H]1NC(=O)[C@@H](CCCNC(=N)NCc2cccc(O)c2)NC(=O)[C@H](CC(=O)O)NC(=O)[C@H](Cc2cnc[nH]2)NC(=O)CN(C)C(=O)[C@H](Cc2ccc(-c3ccc(NC(=O)c4ccc(CC(=O)O)cc4)cc3)cc2)NC(=O)[C@H](Cc2ccc(-c3ccc(C(=O)O)cc3)cc2)NC(=O)[C@H](CC2CCCCC2)NC(=O)CSC[C@@H](C(=O)NCC(N)=O)NC(=O)[C@H](CC(C)C)NC(=O)[C@H](Cc2ncc[nH]2)NC(=O)[C@H](C(C)C)NC(=O)[C@@H]2Cc3ccccc3CN2C1=O [Example 563] ({CH2CO}-[Cha][Bip(4'-COOH)][Bip(4'-NHCO-C6H4-4-CH2COOH)][Sar]HD[dArg(ω-(3-HO-benzyl))]I[Tic]V[Ala(imidazol-2-yl)]LCG-NH2; thioether N-13), CC[C@H](C)[C@@H]1NC(=O)[C@@H](CCCNC(=N)NCc2cccc(O)c2)NC(=O)[C@H](CC(=O)O)NC(=O)[C@H](Cc2cnc[nH]2)NC(=O)CN(C)C(=O)[C@H](Cc2ccc(-c3ccc(NC(=O)c4cccc(OCC(=O)O)c4)cc3)cc2)NC(=O)[C@H](Cc2ccc(-c3ccc(C(=O)O)cc3)cc2)NC(=O)[C@H](CC2CCCCC2)NC(=O)CSC[C@@H](C(=O)NCC(N)=O)NC(=O)[C@H](CC(C)C)NC(=O)[C@H](Cc2ncc[nH]2)NC(=O)[C@H](C(C)C)NC(=O)[C@@H]2Cc3ccccc3CN2C1=O [Example 564] ({CH2CO}-[Cha][Bip(4'-COOH)][Bip(4'-NH)](Benzoyl(3-OCH2COOH))[Sar]HD[dArg(ω-(3-HO-benzyl))]I[Tic]V[Ala(imidazol-2-yl)]LCG-NH2; thioether N-13), CC(C)C[C@@H]1NC(=O)[C@H](CCCNC(=N)N)NC(=O)[C@H](C(C)C)NC(=O)[C@@H]2CCCN2C(=O)[C@H](C(C)C)NC(=O)[C@@H](CCCNC(=N)NCc2cccc(O)c2)NC(=O)[C@H](CC(=O)O)NC(=O)[C@@H]2CCCN2C(=O)CN(C)C(=O)[C@H](Cc2ccc(-c3ccc(NC(=O)c4cccc(CC(=O)O)c4)cc3)cc2)NC(=O)[C@H](Cc2ccc(-c3ccccc3)cc2)NC(=O)[C@H](CN2CCOCC2)NC(=O)CSC[C@@H](C(=O)NCC(N)=O)NC1=O [Example 566] ({CH2CO}-[Ala(morpholin-4-yl)][Bip][Bip(4'-NHCO-C6H4-3-CH2COOH)][Sar]PD[dArg(ω-(3-HO-benzyl))]VPVRLCG-NH2; thioether N-13), CC(C)C[C@@H]1NC(=O)[C@H](CCCNC(=N)N)NC(=O)[C@H](C(C)C)NC(=O)[C@@H]2CCCN2C(=O)[C@H](C(C)C)NC(=O)[C@@H](CCCNC(=N)NCc2cccc(O)c2)NC(=O)[C@H](CC(=O)O)NC(=O)[C@@H]2CCCN2C(=O)CN(C)C(=O)[C@H](Cc2ccc(-c3ccc(NC(=O)c4ccc(CC(=O)O)cc4)cc3)cc2)NC(=O)[C@H](Cc2ccc(-c3ccccc3)cc2)NC(=O)[C@H](CN2CCOCC2)NC(=O)CSC[C@@H](C(=O)NCC(N)=O)NC1=O [Example 567] ({CH2CO}-[Ala(morpholin-4-yl)][Bip][Bip(4'-NHCO-C6H4-4-CH2COOH)][Sar]PD[dArg(ω-(3-HO-benzyl))]VPVRLCG-NH2; thioether N-13), CC(C)C[C@@H]1NC(=O)[C@H](CCCNC(=N)N)NC(=O)[C@H](C(C)C)NC(=O)[C@@H]2CCCN2C(=O)[C@H](C(C)C)NC(=O)[C@@H](CCCNC(=N)NCc2cccc(O)c2)NC(=O)[C@H](CC(=O)O)NC(=O)[C@@H]2CCCN2C(=O)CN(C)C(=O)[C@H](Cc2ccc(-c3ccc(NC(=O)c4cccc(OCC(=O)O)c4)cc3)cc2)NC(=O)[C@H](Cc2ccc(-c3ccccc3)cc2)NC(=O)[C@H](CN2CCOCC2)NC(=O)CSC[C@@H](C(=O)NCC(N)=O)NC1=O [Example 568] ({CH2CO}-[Ala(morpholin-4-yl)][Bip][Bip(4'-NH)](Benzoyl(3-OCH2COOH))[Sar]PD[dArg(ω-(3-HO-benzyl))]VPVRLCG-NH2; thioether N-13), CC(C)C[C@@H]1NC(=O)[C@H](CCCNC(=N)N)NC(=O)[C@H](C(C)C)NC(=O)[C@@H]2CCCN2C(=O)[C@H](C(C)C)NC(=O)[C@@H](CCCNC(=N)NCc2cccc(CNC(=N)N)c2)NC(=O)[C@H](CC(=O)O)NC(=O)[C@@H]2CCCN2C(=O)CN(C)C(=O)[C@H](Cc2ccc(-c3ccc(NC(=O)c4cccc(CC(=O)O)c4)cc3)cc2)NC(=O)[C@H](Cc2ccc(-c3ccccc3)cc2)NC(=O)[C@H](CN2CCOCC2)NC(=O)CSC[C@@H](C(=O)NCC(N)=O)NC1=O [Example 570] ({CH2CO}-[Ala(morpholin-4-yl)][Bip][Bip(4'-NHCO-C6H4-3-CH2COOH)][Sar]PD[dArg(Nω-CH2C6H4-3-CH2Gua)]VPVRLCG-NH2; thioether N-13), CC(C)C[C@@H]1NC(=O)[C@H](CCCNC(=N)N)NC(=O)[C@H](C(C)C)NC(=O)[C@@H]2CCCN2C(=O)[C@H](C(C)C)NC(=O)[C@@H](CCCNC(=N)NCc2cccc(CNC(=N)N)c2)NC(=O)[C@H](CC(=O)O)NC(=O)[C@@H]2CCCN2C(=O)CN(C)C(=O)[C@H](Cc2ccc(-c3ccc(NC(=O)c4ccc(CC(=O)O)cc4)cc3)cc2)NC(=O)[C@H](Cc2ccc(-c3ccccc3)cc2)NC(=O)[C@H](CN2CCOCC2)NC(=O)CSC[C@@H](C(=O)NCC(N)=O)NC1=O [Example 571] ({CH2CO}-[Ala(morpholin-4-yl)][Bip][Bip(4'-NHCO-C6H4-4-CH2COOH)][Sar]PD[dArg(Nω-CH2C6H4-3-CH2Gua)]VPVRLCG-NH2; thioether N-13), CC(C)C[C@@H]1NC(=O)[C@H](CCCNC(=N)N)NC(=O)[C@H](C(C)C)NC(=O)[C@@H]2CCCN2C(=O)[C@H](C(C)C)NC(=O)[C@@H](CCCNC(=N)NCc2cccc(CNC(=N)N)c2)NC(=O)[C@H](CC(=O)O)NC(=O)[C@@H]2CCCN2C(=O)CN(C)C(=O)[C@H](Cc2ccc(-c3ccc(NC(=O)c4cccc(OCC(=O)O)c4)cc3)cc2)NC(=O)[C@H](Cc2ccc(-c3ccccc3)cc2)NC(=O)[C@H](CN2CCOCC2)NC(=O)CSC[C@@H](C(=O)NCC(N)=O)NC1=O [Example 572] ({CH2CO}-[Ala(morpholin-4-yl)][Bip][Bip(4'-NH)](Benzoyl(3-OCH2COOH))[Sar]PD[dArg(Nω-CH2C6H4-3-CH2Gua)]VPVRLCG-NH2; thioether N-13), CC[C@H](C)[C@@H]1NC(=O)[C@@H](CCCNC(=N)N)NC(=O)[C@H](CC(=O)O)NC(=O)[C@@H]2CCCN2C(=O)CN(C)C(=O)[C@H](Cc2ccc(-c3ccc(NC(=O)c4cccc(OCC(=O)O)c4)cc3)cc2)NC(=O)[C@H](Cc2ccc(-c3ccc(C(=O)O)cc3)cc2)NC(=O)[C@H](CC2CCCCC2)NC(=O)CSC[C@@H](C(=O)NCC(N)=O)NC(=O)[C@H](CC(C)C)NC(=O)[C@H](Cc2cnc[nH]2)NC(=O)[C@H](C(C)C)NC(=O)[C@@H]2CCCN2C1=O [Example 573] ({CH2CO}-[Cha][Bip(4'-COOH)][Bip(4'-NH)](Benzoyl(3-OCH2COOH))[Sar]PD[dR]IPVHLCG-NH2; thioether N-13), CC[C@H](C)[C@@H]1NC(=O)[C@@H](CCCNC(=N)N)NC(=O)[C@H](CC(=O)O)NC(=O)[C@@H]2CCCN2C(=O)CN(C)C(=O)[C@H](Cc2ccc(-c3ccc(NC(=O)c4cccc(OCC(=O)O)c4)cc3)cc2)NC(=O)[C@H](Cc2ccc(-c3ccc(C(=O)O)cc3)cc2)NC(=O)[C@H](C(C)(C)C)NC(=O)CSC[C@@H](C(=O)NCC(N)=O)NC(=O)[C@H](CC(C)C)NC(=O)[C@H](Cc2cnc[nH]2)NC(=O)[C@H](C(C)C)NC(=O)[C@@H]2CCCN2C1=O [Example 574] ({CH2CO}-[Tle][Bip(4'-COOH)][Bip(4'-NH)](Benzoyl(3-OCH2COOH))[Sar]PD[dR]IPVHLCG-NH2; thioether N-13)
